Our source for the binding values is paper doi:10.1101/2025.06.22.660944, “Structures of MmpL complexes reveal the assembly and mechanism of this family of transporters” (bioRxiv, 2025).

Protein sequences, listed by entry. Tags and fused reporters are not part of them.
UniProt A0R0B3: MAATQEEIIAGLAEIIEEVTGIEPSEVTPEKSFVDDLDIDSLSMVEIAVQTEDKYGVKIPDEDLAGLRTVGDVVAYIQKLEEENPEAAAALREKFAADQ

Test [1] addresses MmpL5 transporter (M. smegmatis, MSMEG_1382) (M. smegmatis) (UniProt A0QS80). The test is described as follows: cryo-EM structure; particle class 3: dipartite AcpM-MmpL5 trimeric complex, 3.37 Å; same LMNG-solubilized crude membrane sample, Build and Retrieve processing.
Test [2] has the same target. In words: cryo-EM structure; particle class 2: tripartite AcpM-MmpL5-MmpS5 trimeric complex, 2.81 Å; same LMNG-solubilized crude membrane sample, Build and Retrieve processing.

Results are given in words; binding and its absence hold for the method and conditions named. Binding can be weak; no strength is given.

With “meromycolate extension acyl carrier protein M (AcpM) (from UniProt A0R0B3 1-99)”, the binding result in test [1] and in test [2] was “binds” throughout.
